This series concerns rickets-mice. The experiment in a line: Preventing rickets in younger mice: body weight, dry weight, ash weight and total calcium content of femur. It counts as in vivo, mice of Kunming species. The settings on record: for body weight: model 37.2 ± 4.6. How it is done: The mice were bred for 60 days under conditions of avoiding light around-the-clock, at a temperature of 20-25° C. and a relative humility of 40-60% while the normal-control group mice were fed ordinary diet and water and were placed in non-dark room.
The low-calcium diet used in this test was the same as that in Test II but VD in the vitamin mixture was replaced by glucose.
Some weanling mice were placed in dark room and fed VD -deficient low-calcium diet and drunk de-ionized water for 60 days, thus a ricket model of baby mice was prepared. While other weanling mice were placed in non-dark room and fed ordinary diet and drunk tap water for 60 days, these mice were established as normal-control group.

Each structure is given as a SMILES string.

Regarding `O=C(O)[C@H](O)[C@@H](O)[C@H](O)[C@H](O)CO` [calcium gluconate, reference compound], where the note is “300 mg calcium element”, the body weight is on record as 36.1 ± 5.1 g.

Take `O=C(O)[C@H](O)[C@@H](O)CO` [calcium L-threonate]: the body weight runs as follows: (200 mg calcium element) 36.5 ± 4.7 g; (300 mg calcium element) 37.3 ± 4.3 g. The “body weight effect (in words)” value (mouse, in vivo) is recorded as “not markedly affected”.

The values are drawn from patent US6077872A (priority 1998, dated 2000).
